Results reported in paper PMC6367419 (Nature Communications, 2019).
No constants are given. Whether binding was seen depends on the method and setting. A result given as binding can be weak or reduced; the word gives no strength.

Biological target: T1, EscN^29–446 (EPEC type III secretion system ATPase EscN, residues 29–446) (enteropathogenic Escherichia coli (EPEC) O127:H6 E2348/69) (UniProt B7UMA6)
T1 sequence: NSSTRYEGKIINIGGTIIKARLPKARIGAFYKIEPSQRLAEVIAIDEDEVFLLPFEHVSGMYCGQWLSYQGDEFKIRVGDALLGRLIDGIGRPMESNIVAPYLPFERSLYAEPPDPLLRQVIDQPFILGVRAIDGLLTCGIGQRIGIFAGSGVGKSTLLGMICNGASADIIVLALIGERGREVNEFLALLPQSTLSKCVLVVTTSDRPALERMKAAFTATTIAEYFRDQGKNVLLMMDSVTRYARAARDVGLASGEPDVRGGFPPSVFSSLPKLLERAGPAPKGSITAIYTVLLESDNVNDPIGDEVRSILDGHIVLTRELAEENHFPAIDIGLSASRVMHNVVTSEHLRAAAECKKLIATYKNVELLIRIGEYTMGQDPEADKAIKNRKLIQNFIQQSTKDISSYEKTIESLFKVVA
Experiment: co-sedimentation; both purified

Substance	binding
EscO^1–125 (full-length EPEC central stalk protein EscO) (from UniProt Q8VNS0)	binds
EscO^1–125 Arg12Glu/Arg15Glu	binds
EscO^1–125 Lys110Glu/Lys114Glu	no binding (tested: EscN at 2.0 mg/mL, and EscO at 0.7 mg/mL)
